{"source": "patent US5968823A", "about": "“Glycine transporter-transfected avian cells and uses thereof” (Allelix Neuroscience Inc., priority 1998, dated 1999)", "target": "T1, GlyT-2 (Rattus norvegicus, UniProt P58295)", "T1 construct": "expressed in transfected cells; host or cells: QT-6 quail fibroblast cells (ATCC CRL-1708), transient transfection", "T1 sequence (P58295 1-799)": "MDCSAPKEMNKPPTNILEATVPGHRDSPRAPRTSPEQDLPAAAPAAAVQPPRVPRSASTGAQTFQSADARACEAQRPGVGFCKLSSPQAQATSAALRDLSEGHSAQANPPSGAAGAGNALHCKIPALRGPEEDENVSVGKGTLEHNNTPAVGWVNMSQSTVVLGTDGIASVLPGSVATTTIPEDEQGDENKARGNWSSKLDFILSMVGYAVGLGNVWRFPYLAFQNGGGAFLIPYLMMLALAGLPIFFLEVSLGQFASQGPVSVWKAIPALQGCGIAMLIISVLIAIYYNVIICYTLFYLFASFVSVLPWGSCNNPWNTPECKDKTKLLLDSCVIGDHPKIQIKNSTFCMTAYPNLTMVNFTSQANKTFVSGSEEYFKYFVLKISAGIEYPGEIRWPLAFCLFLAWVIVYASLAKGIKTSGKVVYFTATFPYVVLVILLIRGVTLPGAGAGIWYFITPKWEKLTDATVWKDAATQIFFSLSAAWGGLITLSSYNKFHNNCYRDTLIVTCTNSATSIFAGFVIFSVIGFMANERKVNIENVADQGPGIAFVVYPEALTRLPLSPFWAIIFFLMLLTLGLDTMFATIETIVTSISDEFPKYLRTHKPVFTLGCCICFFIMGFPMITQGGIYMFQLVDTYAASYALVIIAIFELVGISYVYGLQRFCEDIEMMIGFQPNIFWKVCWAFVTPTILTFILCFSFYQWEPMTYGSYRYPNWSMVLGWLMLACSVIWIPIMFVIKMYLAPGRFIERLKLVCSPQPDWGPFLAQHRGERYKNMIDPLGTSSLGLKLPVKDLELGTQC", "test": "Inhibition of [3H]glycine uptake in QT-6 cells transiently transfected with GlyT-2", "format": "cell-based", "settings": "QT-6 cells transfected with GlyT-2; 50 nM [3H]glycine, 20 min at 37° C; read-out: Effect Via GlyT-2, pIC50 (converted)", "description": "This example sets forth methods and materials used for growing and transfecting QT-6 cells.\nThe following four day procedure for the tranfections was used:\nOn day 1, QT-6 cells were plated at a density of 1×10^6 cells in 10 ml of complete QT-6 medium in 100 mm dishes.\nOn day 2, the medium was aspirated and the cells were washed with 10 ml of PBS followed by 10 ml of TBS. The TBS was aspirated, then 1 ml of the DEAE/DNA mix was added to the plate. The plate was swirled in the hood every 5 minutes. After 30 minutes, 8 ml of 80 μM chloroquine in QT-6 medium was added and the culture was incubated for 2.5 hours at 37° C. and 5% CO2. The medium was then aspirated and the cells were washed two times with complete QT-6 medium, then […] complete QT-6 medium was added and the cells were returned to the incubator.\nOn day 3, the cells were removed with trypsin/EDTA as described above, and plated into the wells of 96-well assay plates at approximately 2×10^5 cells/well.\nOn day 4, glycine transport was assayed as described in Example 2. […]\nTransient GlyT-transfected cells or control (\"mock\") cells grown in accordance with Example 1 were washed three times with HEPES buffered saline (HBS). […] The cells were harvested, scintillant was added to the cells, the cells were shaken for 30 minutes, and the radioactivity in the cells was counted using a scintillation counter. […]"}
{"compound": "CSc1ccc2c(c1)N(CCC1CCCCN1C)c1ccccc1S2", "note": "(stereo not shown) [ZD]", "values": [{"measurement": "IC50", "value": 19.5, "unit": "µM"}]}
